# According to the supplement of paper PMC8728848:
# Some of the results follow.
# Legend:
# Assay in all cases: glycan array binding signal (z-score within array); higher = stronger binding
# Settings in all cases: glycan notation: IUPAC condensed, linker removed
# [1] = molecular target: Gal(b1-4)GlcNAc(b1-3)Gal(b1-4)GlcNAc(b1-2)[Gal(b1-4)GlcNAc(b1-3)Gal(b1-4)GlcNAc(b1-6)]Man(a1-6)[Gal(b1-4)GlcNAc(b1-3)Gal(b1-4)GlcNAc(b1-2)Man(a1-3)]Man(b1-4)GlcNAc(b1-4)[Fuc(a1-6)]GlcNAc
# Outline: (§1)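 Glycan array binding is given as a within-array Z-score, which can be read as non-binding when negative. The arrays, 3228 of them, came from the Consortium for Functional Glycomics database and were retained only where the protein sequence was available. Z-scores were averaged across arrays of the same protein sequence at different concentrations or buffers and across linkers.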
# [2] = molecular target: Gal(b1-4)GlcNAc(b1-3)Gal(b1-4)GlcNAc(b1-3)Gal(b1-4)GlcNAc
# Outline: as §1
# [3] = molecular target: Gal(b1-4)GlcNAc(b1-3)Gal(b1-4)GlcNAc(b1-3)Gal(b1-4)GlcNAc(b1-2)Man(a1-3)[Gal(b1-4)GlcNAc(b1-3)Gal(b1-4)GlcNAc(b1-3)Gal(b1-4)GlcNAc(b1-2)Man(a1-6)]Man(b1-4)GlcNAc(b1-4)GlcNAc
# Outline: as §1
# [4] = molecular target: Gal(b1-4)GlcNAc(b1-3)Gal(b1-4)GlcNAc(b1-3)Gal(b1-4)GlcNAc(b1-2)Man(a1-3)[Gal(b1-4)GlcNAc(b1-3)Gal(b1-4)GlcNAc(b1-3)Gal(b1-4)GlcNAc(b1-2)Man(a1-6)]Man(b1-4)GlcNAc(b1-4)[Fuc(a1-6)]GlcNAc
# Outline: as §1
# [5] = molecular target: Gal(b1-4)GlcNAc(b1-3)Gal(b1-4)GlcNAc(b1-3)Gal(b1-4)GlcNAc(b1-2)[Gal(b1-4)GlcNAc(b1-3)Gal(b1-4)GlcNAc(b1-3)Gal(b1-4)GlcNAc(b1-6)]Man(a1-6)[Gal(b1-4)GlcNAc(b1-3)Gal(b1-4)GlcNAc(b1-3)Gal(b1-4)GlcNAc(b1-2)Man(a1-3)]Man(b1-4)GlcNAc(b1-4)[Fuc(a1-6)]GlcNAc
# Outline: as §1
# [6] = molecular target: Gal(b1-4)GlcNAc(b1-3)Gal(b1-4)GlcNAc(b1-3)Gal(b1-4)GlcNAc(b1-3)Gal(b1-4)GlcNAc(b1-2)Man(a1-3)[Gal(b1-4)GlcNAc(b1-3)Gal(b1-4)GlcNAc(b1-3)Gal(b1-4)GlcNAc(b1-3)Gal(b1-4)GlcNAc(b1-2)Man(a1-6)]Man(b1-4)GlcNAc(b1-4)GlcNAc
# Outline: as §1
# [7] = molecular target: Gal(b1-4)GlcNAc(b1-3)Gal(b1-4)GlcNAc(b1-3)Gal(b1-4)GlcNAc(b1-3)Gal(b1-4)GlcNAc(b1-2)Man(a1-3)[Gal(b1-4)GlcNAc(b1-3)Gal(b1-4)GlcNAc(b1-3)Gal(b1-4)GlcNAc(b1-3)Gal(b1-4)GlcNAc(b1-2)Man(a1-6)]Man(b1-4)GlcNAc(b1-4)[Fuc(a1-6)]GlcNAc
# Outline: as §1
# [8] = molecular target: Gal(b1-4)GlcNAc(b1-3)Gal(b1-4)GlcNAc(b1-3)Gal(b1-4)GlcNAc(b1-3)Gal(b1-4)GlcNAc(b1-2)[Gal(b1-4)GlcNAc(b1-3)Gal(b1-4)GlcNAc(b1-3)Gal(b1-4)GlcNAc(b1-3)Gal(b1-4)GlcNAc(b1-6)]Man(a1-6)[Gal(b1-4)GlcNAc(b1-3)Gal(b1-4)GlcNAc(b1-3)Gal(b1-4)GlcNAc(b1-3)Gal(b1-4)GlcNAc(b1-2)Man(a1-3)]Man(b1-4)GlcNAc(b1-4)[Fuc(a1-6)]GlcNAc
# Outline: as §1
# [9] = molecular target: Gal(b1-4)GlcNAc(b1-3)Gal(b1-4)GlcNAc(b1-3)Gal(b1-4)GlcNAc(b1-3)Gal(b1-4)GlcNAc(b1-3)Gal(b1-4)GlcNAc(b1-2)Man(a1-3)[Gal(b1-4)GlcNAc(b1-3)Gal(b1-4)GlcNAc(b1-3)Gal(b1-4)GlcNAc(b1-3)Gal(b1-4)GlcNAc(b1-3)Gal(b1-4)GlcNAc(b1-2)Man(a1-6)]Man(b1-4)GlcNAc(b1-4)GlcNAc
# Outline: as §1
# [10] = molecular target: Gal(b1-4)GlcNAc(b1-3)Gal(b1-4)GlcNAc(b1-3)Gal(b1-4)GlcNAc(b1-3)Gal(b1-4)GlcNAc(b1-3)Gal(b1-4)GlcNAc(b1-2)Man(a1-3)[Gal(b1-4)GlcNAc(b1-3)Gal(b1-4)GlcNAc(b1-3)Gal(b1-4)GlcNAc(b1-3)Gal(b1-4)GlcNAc(b1-3)Gal(b1-4)GlcNAc(b1-2)Man(a1-6)]Man(b1-4)GlcNAc(b1-4)[Fuc(a1-6)]GlcNAc
# Outline: as §1
# [11] = molecular target: Gal(b1-4)GlcNAc(b1-3)Gal(b1-4)GlcNAc(b1-3)Gal(b1-4)GlcNAc(b1-3)Gal(b1-4)GlcNAc(b1-3)Gal(b1-4)GlcNAc(b1-2)[Gal(b1-4)GlcNAc(b1-3)Gal(b1-4)GlcNAc(b1-3)Gal(b1-4)GlcNAc(b1-3)Gal(b1-4)GlcNAc(b1-3)Gal(b1-4)GlcNAc(b1-6)]Man(a1-6)[Gal(b1-4)GlcNAc(b1-3)Gal(b1-4)GlcNAc(b1-3)Gal(b1-4)GlcNAc(b1-3)Gal(b1-4)GlcNAc(b1-3)Gal(b1-4)GlcNAc(b1-2)Man(a1-3)]Man(b1-4)GlcNAc(b1-4)[Fuc(a1-6)]GlcNAc
# Outline: as §1
# [12] = molecular target: Gal(b1-4)GlcNAc(b1-3)Gal(b1-4)GlcNAc(b1-3)Gal(b1-4)GlcNAc(b1-3)Gal(b1-4)GlcNAc(b1-3)Gal(b1-4)GlcNAc(b1-3)Gal(b1-4)GlcNAc(b1-2)Man(a1-3)[Gal(b1-4)GlcNAc(b1-3)Gal(b1-4)GlcNAc(b1-3)Gal(b1-4)GlcNAc(b1-3)Gal(b1-4)GlcNAc(b1-3)Gal(b1-4)GlcNAc(b1-3)Gal(b1-4)GlcNAc(b1-2)Man(a1-6)]Man(b1-4)GlcNAc(b1-4)GlcNAc
# Outline: as §1
# [13] = molecular target: Gal(b1-4)GlcNAc(b1-3)Gal(b1-4)GlcNAc(b1-3)GalNAc
# Outline: as §1
# [14] = molecular target: Gal(b1-4)GlcNAc(b1-3)Gal(b1-4)GlcNAc(b1-3)[Gal(b1-4)GlcNAc(b1-3)Gal(b1-4)GlcNAc(b1-6)]GalNAc
# Outline: as §1
# [15] = molecular target: Gal(b1-4)GlcNAc(b1-3)Gal(b1-4)GlcNAc(b1-6)[Gal(b1-3)]GalNAc
# Outline: as §1
# [16] = molecular target: Gal(b1-4)GlcNAc(b1-3)Gal(b1-4)[Fuc(a1-3)]GlcNAc(b1-3)Gal(b1-4)[Fuc(a1-3)]GlcNAc
# Outline: as §1
# [17] = molecular target: Gal(b1-4)GlcNAc(b1-3)GalNAc
# Outline: as §1
# [18] = molecular target: Gal(b1-4)GlcNAc(b1-3)[Fuc(a1-3)GlcNAc(b1-6)]Gal(b1-4)Glc
# Outline: as §1
# [19] = molecular target: Gal(b1-4)GlcNAc(b1-3)[Gal(b1-4)GlcNAc(b1-6)]Gal(b1-4)GlcNAc
# Outline: as §1
# [20] = molecular target: Gal(b1-4)GlcNAc(b1-3)[GlcNAc(b1-6)]Gal(b1-4)GlcNAc
# Outline: as §1
# [21] = molecular target: Gal(b1-4)GlcNAc(b1-6)Gal(b1-4)GlcNAc
# Outline: as §1
# [22] = molecular target: Gal(b1-4)GlcNAc(b1-6)GalNAc
# Outline: as §1
# [23] = molecular target: Gal(b1-4)GlcNAc(b1-6)[Gal(b1-3)]GalNAc
# Outline: as §1
# [24] = molecular target: Gal(b1-4)GlcNAc(b1-6)[Gal(b1-4)GlcNAc(b1-3)]GalNAc
# Outline: as §1
# [25] = molecular target: Gal(b1-4)GlcNAc6P
# Outline: as §1
# [26] = molecular target: Gal(b1-6)Gal
# Outline: as §1
# [27] = molecular target: Gal3S(b1-3)GalNAc
# Outline: as §1
# [28] = molecular target: Gal3S(b1-3)GlcNAc
# Outline: as §1
# [29] = molecular target: Gal3S(b1-3)[Fuc(a1-4)]GlcNAc
# Outline: as §1
# [30] = molecular target: Gal3S(b1-4)Glc
# Outline: as §1
binder,measurement,setting,value
"GroEL (Clostridium difficile), Q18CT5 (protein) MAKEIKFSEETRRALEAGVNKLADTVKVTLGPKGRNVILDKKFGSPLITNDGVTIAKEIELEDRFENMGAQLVKEVATKTNDVAGDGTTTATVLAQAIIREGLKNVTAGANPILLRKGIQKAVTVAVEELKNQSRIVETQEAISQVASISAGDEEVGKLIAEAMEIVGKDGVITVEESQTMNTELDAVEGMQFDRGFVSAYMVTDVDKMEAVLNDPYILITDKKISNIQELLPVLEQIVQQGKKLLIIAEDVEGEALSTLVVNKLRGTFDVVAVKAPGFGDRRKEMLQDIAILTGAQVISEELGYDLKEADLSMLGRASSVKVTKESTTIVDGSGDKKAIEDRVTQIKHQVEQTTSDFDREKLMERLAKLAGGVAVVKVGAATEVELKERKLRIEDALNATRAAVEEGIVAGGGTAFVSVIPAIGTLIESLEGEVKLGAQIVKKALEEPLRQIAINAGLEGAVIVQNVVNSEAETGFDALNEKYVNMIEAGIVDPTKVSRSALQNAASIASTFLTTEAAVADLPEKEDAGMPGMGGGMPGMM",glycan array binding signal (z-score),[1],0.994
same,glycan array binding signal (z-score),[2],1.42
same,glycan array binding signal (z-score),[3],0.878
same,glycan array binding signal (z-score),[4],0.085
same,glycan array binding signal (z-score),[5],3.44
same,glycan array binding signal (z-score),[6],-1.18
same,glycan array binding signal (z-score),[7],0.552
same,glycan array binding signal (z-score),[8],1.89
same,glycan array binding signal (z-score),[9],0.162
same,glycan array binding signal (z-score),[10],0.646
same,glycan array binding signal (z-score),[11],1.02
same,glycan array binding signal (z-score),[12],1.99
same,glycan array binding signal (z-score),[13],-1.96
same,glycan array binding signal (z-score),[14],1.2
same,glycan array binding signal (z-score),[15],2.77
same,glycan array binding signal (z-score),[16],-1.13
same,glycan array binding signal (z-score),[17],-0.517
same,glycan array binding signal (z-score),[18],-0.128
same,glycan array binding signal (z-score),[19],-0.741
same,glycan array binding signal (z-score),[20],-0.235
same,glycan array binding signal (z-score),[21],-0.638
same,glycan array binding signal (z-score),[22],-0.35
same,glycan array binding signal (z-score),[23],-1.14
same,glycan array binding signal (z-score),[24],-0.427
same,glycan array binding signal (z-score),[25],0.468
same,glycan array binding signal (z-score),[26],-0.099
same,glycan array binding signal (z-score),[27],2.59
same,glycan array binding signal (z-score),[28],0.025
same,glycan array binding signal (z-score),[29],-0.243
same,glycan array binding signal (z-score),[30],0.546
